Measurements from the supplement of paper PMC8728848.
This is one part of the list.

Assays:
Assay in all cases: glycan array binding signal (z-score within array); higher = stronger binding
Conditions in all cases: glycan notation: IUPAC condensed, linker removed
[1] = molecular target: Neu5Ac(a2-6)GlcNAc(b1-4)GlcNAc(b1-4)GlcNAc
Procedure, shortened: (§1)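 Negative Z-scores can be read as non-binding. The Z-score is calculated within each array and then averaged across arrays of one protein sequence at different concentrations or buffers and across linkers. Arrays, 3228 in all, were curated from the Consortium for Functional Glycomics database and kept only where the protein sequence was available.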

[2] = molecular target: Neu5Ac(a2-8)Neu5Ac
Procedure, shortened: as §1

[3] = molecular target: Neu5Ac(a2-8)Neu5Ac(a2-3)Gal(b1-3)GalNAc(b1-4)[Neu5Ac(a2-3)]Gal(b1-4)Glc
Procedure, shortened: as §1

[4] = molecular target: Neu5Ac(a2-8)Neu5Ac(a2-3)Gal(b1-3)GalNAc(b1-4)[Neu5Ac(a2-8)Neu5Ac(a2-3)]Gal(b1-4)Glc
Procedure, shortened: as §1

[5] = molecular target: Neu5Ac(a2-8)Neu5Ac(a2-3)Gal(b1-4)Glc
Procedure, shortened: as §1

[6] = molecular target: Neu5Ac(a2-8)Neu5Ac(a2-3)Gal(b1-4)GlcNAc
Procedure, shortened: as §1

[7] = molecular target: Neu5Ac(a2-8)Neu5Ac(a2-3)[Gal(b1-3)GalNAc(b1-4)]Gal(b1-4)Glc
Procedure, shortened: as §1

[8] = molecular target: Neu5Ac(a2-8)Neu5Ac(a2-3)[GalNAc(b1-4)]Gal(b1-4)Glc
Procedure, shortened: as §1

[9] = molecular target: Neu5Ac(a2-8)Neu5Ac(a2-8)Neu5Ac
Procedure, shortened: as §1

[10] = molecular target: Neu5Ac(a2-8)Neu5Ac(a2-8)Neu5Ac(a2-3)Gal(b1-4)Glc
Procedure, shortened: as §1

[11] = molecular target: Neu5Ac(a2-8)Neu5Ac(a2-8)Neu5Ac(a2-3)[Gal(b1-3)GalNAc(b1-4)]Gal(b1-4)Glc
Procedure, shortened: as §1

[12] = molecular target: Neu5Ac(a2-8)Neu5Ac(a2-8)Neu5Ac(a2-3)[GalNAc(b1-4)]Gal(b1-4)Glc
Procedure, shortened: as §1

[13] = molecular target: Neu5Ac(a2-8)Neu5Ac(a2-8)Neu5Ac(a2-8)Neu5Ac(a2-3)[GalNAc(b1-4)]Gal(b1-4)Glc
Procedure, shortened: as §1

[14] = molecular target: Neu5Ac(a2-8)Neu5Gc(a2-3)Gal(b1-4)GlcNAc
Procedure, shortened: as §1

[15] = molecular target: Neu5Ac(b2-6)Gal(b1-4)GlcNAc
Procedure, shortened: as §1

[16] = molecular target: Neu5Ac(b2-6)GalNAc
Procedure, shortened: as §1

[17] = molecular target: Neu5Ac9Ac(a2-3)Gal(b1-3)GlcNAc
Procedure, shortened: as §1

[18] = molecular target: Neu5Ac9Ac(a2-3)Gal(b1-4)GlcNAc
Procedure, shortened: as §1

[19] = molecular target: Neu5Ac9Ac(a2-6)Gal(b1-4)GlcNAc
Procedure, shortened: as §1

[20] = molecular target: Neu5Gc(a2-3)Gal(b1-3)GlcNAc
Procedure, shortened: as §1

[21] = molecular target: Neu5Gc(a2-3)Gal(b1-3)[Fuc(a1-4)]GlcNAc
Procedure, shortened: as §1

[22] = molecular target: Neu5Gc(a2-3)Gal(b1-4)Glc
Procedure, shortened: as §1

[23] = molecular target: Neu5Gc(a2-3)Gal(b1-4)GlcNAc
Procedure, shortened: as §1

[24] = molecular target: Neu5Gc(a2-3)Gal(b1-4)GlcNAc(b1-3)Gal(b1-4)GlcNAc(b1-2)Man(a1-3)[Neu5Gc(a2-3)Gal(b1-4)GlcNAc(b1-3)Gal(b1-4)GlcNAc(b1-2)Man(a1-6)]Man(b1-4)GlcNAc(b1-4)GlcNAc
Procedure, shortened: as §1

[25] = molecular target: Neu5Gc(a2-3)Gal(b1-4)[Fuc(a1-3)]GlcNAc
Procedure, shortened: as §1

[26] = molecular target: Neu5Gc(a2-6)Gal(b1-4)GlcNAc
Procedure, shortened: as §1

[27] = molecular target: Neu5Gc(a2-6)GalNAc
Procedure, shortened: as §1

[28] = molecular target: Neu5Gc(a2-8)Neu5Ac(a2-3)Gal(b1-4)GlcNAc
Procedure, shortened: as §1

[29] = molecular target: Neu5Gc(a2-8)Neu5Gc(a2-3)Gal(b1-4)GlcNAc
Procedure, shortened: as §1

[30] = molecular target: Neu5Gc(a2-8)Neu5Gc(a2-3)Gal(b1-4)GlcNAc(b1-3)Gal(b1-4)GlcNAc
Procedure, shortened: as §1

[31] = molecular target: Neu5Gc(a2-8)Neu5Gc(a2-6)Gal(b1-4)GlcNAc
Procedure, shortened: as §1

[32] = molecular target: Neu5Gc(b2-6)Gal(b1-4)GlcNAc
Procedure, shortened: as §1

B1: PhypaEULS3 (Physcomitrella patens) (protein)
chain: MLPVRLHCKADPNFNLAAVPGQGPVMVPFSPNDDFQVWYKDVTMSTRVKDETGSSAFSLINKATGQALRHAPEDLAQCLLADYDSNALDQTVLWTMSEDMGQGYCCIRLASQITRNLDVFRGDKKSGGVKEGSPVITFAWKKQDNQIWKMITAILEQKLISEEDLNSAVDHHHHHH
With B1 the “glycan array binding signal (z-score)” value [1] was -1.12, the “glycan array binding signal (z-score)” value [2] was -0.256 and the “glycan array binding signal (z-score)” value [3] was -0.561. For the same binder, the “glycan array binding signal (z-score)” value [4] was 0.367, the “glycan array binding signal (z-score)” value [5] was 0.079 and the “glycan array binding signal (z-score)” value [6] was 1.37. The “glycan array binding signal (z-score)” value [7] was -0.838, the “glycan array binding signal (z-score)” value [8] was -0.005 and the “glycan array binding signal (z-score)” value [9] was -0.561. For the same binder, the “glycan array binding signal (z-score)” value [10] was -0.311, the “glycan array binding signal (z-score)” value [11] was -1.74 and the “glycan array binding signal (z-score)” value [12] was -1.16. For the same binder, the “glycan array binding signal (z-score)” value [13] was 0.99, the “glycan array binding signal (z-score)” value [14] was -1.07 and the “glycan array binding signal (z-score)” value [15] was 0.796. For the same binder, the “glycan array binding signal (z-score)” value [16] was -0.204, the “glycan array binding signal (z-score)” value [17] was 1.59 and the “glycan array binding signal (z-score)” value [18] was 0.147. The “glycan array binding signal (z-score)” value [19] was 0.138, the “glycan array binding signal (z-score)” value [20] was -0.426 and the “glycan array binding signal (z-score)” value [21] was 0.692. For the same binder, the “glycan array binding signal (z-score)” value [22] was 0.964, the “glycan array binding signal (z-score)” value [23] was 0.278 and the “glycan array binding signal (z-score)” value [24] was 0.162. For the same binder, the “glycan array binding signal (z-score)” value [25] was -1.36, the “glycan array binding signal (z-score)” value [26] was -0.106 and the “glycan array binding signal (z-score)” value [27] was 2.46. The “glycan array binding signal (z-score)” value [28] was -1.74, the “glycan array binding signal (z-score)” value [29] was -0.693 and the “glycan array binding signal (z-score)” value [30] was -0.248. The “glycan array binding signal (z-score)” value [31] was -1.13 and the “glycan array binding signal (z-score)” value [32] was -0.319.
